Results deposited as PubChem BioAssay AID1224831 (NIAID, 2016)

Screen: 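Retesting screen hits on the TLR4-driven TNF response with six separate siRNAs each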 (follow-up of hits)
Cell system: human THP-1 B5 monocytic leukaemia cells carrying a TNF promoter luciferase reporter, made macrophage-like with PMA
Reagent: single siRNA against human genes, 50 nM
Time to read-out: about 68 h of knock-down, then 4 h LPS
Treatment: LPS (Salmonella minnesota, TLR-grade) at 10 ng/ml for 4 h; PMA 5 ng/ml present during knock-down
Detection: 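Firefly to renilla luciferase ratio of a TNF promoter reporter after 4 h LPS, scaled to plate median, turned into robust z-score, averaged over replicates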
Scale: TNF reporter z-score: higher = stronger LPS-induced TNF reporter signal; z-score, median over gene's siRNAs: higher = stronger TNF reporter signal across the gene's siRNAs
Hit rule: 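Two-sided call: reduced or raised TNF reporter signal counts as active once mean z reaches about -1 or below, or about 1.5 or above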
Meaning of the calls: active = changed TNF reporter (either direction); inactive = little change
This is a random part of about 3,500 deposited reagents. 731 of them (21%) were called active. 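Active means either lowered or raised reporter signal; the gene-median score did not drive the per-siRNA calls.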 A number with no mark means an inactive call. Reagent sequences are not shown.

| gene symbol | PubChem SID | TNF reporter z-score, replicate mean | z-score, median over gene's siRNAs |
| --- | --- | --- | --- |
| PPL (periplakin) | SID315482730 | 0.09 | -0.115 |
| PPL (periplakin) | SID315482731 | -0.5 | -0.115 |
| PPL (periplakin) | SID315482732 | -0.83 | -0.115 |
| PPL (periplakin) | SID315482733 | 0.56 | -0.115 |
| PPL (periplakin) | SID315482734 | 1.47 | -0.115 |
| PPL (periplakin) | SID315482735 | -0.32 | -0.115 |
| DRC1 (dynein regulatory complex subunit 1) | SID315487299 | -0.3 | -0.195 |
| DRC1 (dynein regulatory complex subunit 1) | SID315487300 | -0.04 | -0.195 |
| DRC1 (dynein regulatory complex subunit 1) | SID315487301 | -2.09 (active) | -0.195 |
| DRC1 (dynein regulatory complex subunit 1) | SID315487302 | -0.4 | -0.195 |
| DRC1 (dynein regulatory complex subunit 1) | SID315487303 | -0.09 | -0.195 |
| DRC1 (dynein regulatory complex subunit 1) | SID315487304 | 0.25 | -0.195 |
| SLC20A2 | SID315482874 | 3.13 (active) | 0.26 |
| SLC20A2 | SID315482875 | 0.05 | 0.26 |
| SLC20A2 | SID315482876 | 0.3 | 0.26 |
| SLC20A2 | SID315482877 | 0.41 | 0.26 |
| SLC20A2 | SID315482878 | -0.29 | 0.26 |
| SLC20A2 | SID315482879 | 0.22 | 0.26 |
| HAGH (hydroxyacylglutathione hydrolase) | SID315482412 | -0.28 | -0.565 |
| HAGH (hydroxyacylglutathione hydrolase) | SID315482413 | 1.95 (active) | -0.565 |
| HAGH (hydroxyacylglutathione hydrolase) | SID315482414 | -0.85 | -0.565 |
| HAGH (hydroxyacylglutathione hydrolase) | SID315482415 | -1.31 (active) | -0.565 |
| HAGH (hydroxyacylglutathione hydrolase) | SID315482416 | 10.3 (active) | -0.565 |
| HAGH (hydroxyacylglutathione hydrolase) | SID315482417 | -0.9 | -0.565 |
| VPS25 (vacuolar protein sorting 25 homolog) | SID315487173 | -0.66 | 0.16 |
| VPS25 (vacuolar protein sorting 25 homolog) | SID315487174 | 1.2 | 0.16 |
| VPS25 (vacuolar protein sorting 25 homolog) | SID315487175 | 0.54 | 0.16 |
| VPS25 (vacuolar protein sorting 25 homolog) | SID315487176 | 0.69 | 0.16 |
| VPS25 (vacuolar protein sorting 25 homolog) | SID315487177 | -0.52 | 0.16 |
| VPS25 (vacuolar protein sorting 25 homolog) | SID315487178 | -0.22 | 0.16 |
| SF3B1 (splicing factor 3b subunit 1) | SID315485196 | -0.53 | -1.27 |
| SF3B1 (splicing factor 3b subunit 1) | SID315485197 | -1.85 (active) | -1.27 |
| SF3B1 (splicing factor 3b subunit 1) | SID315485198 | -1.44 (active) | -1.27 |
| SF3B1 (splicing factor 3b subunit 1) | SID315485199 | -1.1 (active) | -1.27 |
| SF3B1 (splicing factor 3b subunit 1) | SID315485200 | -1.83 (active) | -1.27 |
| SF3B1 (splicing factor 3b subunit 1) | SID315485201 | -0.66 | -1.27 |

Individual results from the list.
For “TNF reporter z-score, replicate mean”, SF3B1 (splicing factor 3b subunit 1) [SID315485199] shows -1.1 (active)
For “TNF reporter z-score, replicate mean”, SLC20A2 [SID315482876] shows 0.3
For “TNF reporter z-score, replicate mean”, SF3B1 (splicing factor 3b subunit 1) [SID315485196] reads -0.53
Entry of VPS25 (vacuolar protein sorting 25 homolog) [SID315487177] under “z-score, median over gene's siRNAs”: 0.16
For “TNF reporter z-score, replicate mean”, SLC20A2 [SID315482874] reads 3.13 (active)
